Measured values as given in patent publication US20170000133A1, “BENZOXABOROLE FUNGICIDES” (SYNGENTA PARTICIPATIONS AG, priority 2013, published 2017).
Some entries share one result that the patent states for a list of compounds. At least one compound was matched to its structure with a doubt left.

What was measured:
[1] = tested on: Pythium ultimum; assay: Pythium ultimum / liquid culture (seedling damping off); type: cell-based; settings: 200 ppm; potato dextrose broth, 24° C., 2-3 days after application
[2] = tested on: Gaeumannomyces graminis; assay: Gaeumannomyces graminis / liquid culture (take-all of cereals); type: cell-based; settings: 200 ppm; PDB potato dextrose broth, 24° C., 4-5 days after application
Procedure: (§1) 14. Gaeumannomyces graminis/Liquid Culture (Take-all of Cereals): Mycelial fragments of the fungus from cryogenic storage were directly mixed into nutrient broth (PDB potato dextrose broth). After placing a DMSO solution of test compound into a 96-well microtiter plate at an application rate of 200 ppm, the nutrient broth Cp.33, containing the fungal spores is added. The test plates were incubated at 24° C. and the inhibition of growth was determined photometrically 4-5 days after application.

[3] = tested on: Thanatephorus cucumeris (Rhizoctonia solani); assay: Thanatephorus cucumeris (Rhizoctonia solani) / liquid culture (foot rot, damping-off); type: cell-based; settings: 200 ppm; PDB potato dextrose broth, 24° C., 3-4 days after application
Procedure: 17. Thanatephorus cucumeris (Rhizoctonia solani)/Liquid Culture (Foot Rot, Damping-Off): Mycelia fragments of a newly grown liquid culture of the fungus were directly mixed into nutrient broth (PDB potato dextrose broth). After placing a DMSO solution of the test compounds into a 96-well microtiter plate at an application rate of 200 ppm, the nutrient broth containing the fungal material was added. The test plates were incubated at 24° C. and the inhibition of growth was determined photometrically 3-4 days after application.

[4] = tested on: Sclerotinia sclerotiorum; assay: Sclerotinia sclerotiorum / liquid culture (cottony rot); type: cell-based; settings: 200 ppm; PDB potato dextrose broth, 24° C., 3-4 days after application
Procedure: 18. Sclerotinia sclerotiorum/Liquid Culture (Cottony Rot): Mycelia fragments of a newly grown liquid culture of the fungus were directly mixed into nutrient broth (PDB potato dextrose broth). After placing a (DMSO) solution of the test compounds into a microtiter plate (96-well format) the nutrient broth containing the fungal material was added. The test plates were incubated at 24° C. and the inhibition of growth was determined visually 3-4 days after application.

[5] = tested on: Mycosphaerella graminicola (Septoria tritici); assay: Mycosphaerella graminicola (Septoria tritici) / liquid culture (Septoria blotch); type: cell-based; settings: 200 ppm; PDB potato dextrose broth, 24° C., 4-5 days after application
Procedure: as §1, with “13. Mycosphaerella graminicola (Septoria tritici)/Liquid” for “14. Gaeumannomyces graminis/Liquid”, “(Septoria Blotch): Conidia” for “(Take-all of Cereals): Mycelial fragments”, “broth” for “broth Cp.33,”, “was” for “is”

[6] = tested on: Botryotinia fuckeliana (Botrytis cinerea); assay: Botryotinia fuckeliana (Botrytis cinerea) / liquid culture (gray mould); type: cell-based; settings: 200 ppm; Vogels broth, 24° C., 3-4 days after application
Procedure: (§2) 10. Botryotinia fuckeliana (Botrytis cinerea)/Liquid Culture (Gray Mould): Conidia of the fungus from cryogenic storage were directly mixed into nutrient broth (Vogels broth). After placing a DMSO solution of test compound into a 96-well microtiter plate at an application rate of 200 ppm, the nutrient broth containing the fungal spores was added. The test plates were incubated at 24° C. and the inhibition of growth was determined photometrically 3-4 days after application.

[7] = tested on: Monographella nivalis (Microdochium nivale); assay: Monographella nivalis (Microdochium nivale) / liquid culture (foot rot cereals); type: cell-based; settings: 200 ppm; PDB potato dextrose broth, 24° C., 4-5 days after application
[8] = tested on: Glomerella lagenarium (Colletotrichum lagenarium); assay: Glomerella lagenarium (Colletotrichum lagenarium) / liquid culture (anthracnose); type: cell-based; settings: 200 ppm; PDB potato dextrose broth, 24° C., 3-4 days after application
Procedure: as §2, with “11. Glomerella lagenarium (Colletotrichum lagenarium)/Liquid” for “10. Botryotinia fuckeliana (Botrytis cinerea)/Liquid”, “(Anthracnose):” for “(Gray Mould):”, “(PDB potato dextrose” for “(Vogels”, “measured” for “determined”

[9] = tested on: Puccinia recondita f. sp. tritici; assay: Puccinia recondita f. sp. tritici / wheat / leaf disc curative (brown rust); type: in vivo; settings: 200 ppm, wheat leaf segments, applied one day after inoculation, assessed 8 dpi
Procedure: 4. Puccinia recondita f. sp. tritici/Wheat/Leaf Disc Curative (Brown Rust) Wheat leaf segments are placed on agar in multiwell plates (24-well format). The leaf disks are then inoculated with a spore suspension of the fungus. One day after inoculation the test solution is applied. After appropriate incubation the activity of a compound is assessed 8 dpi (days after inoculation) as curative fungicidal activity. Dose range: 200-22 ppm.

[10] = tested on: Puccinia recondita f. sp. tritici; assay: Puccinia recondita f. sp. tritici / wheat / leaf disc preventative (brown rust); type: in vivo; settings: 200 ppm, wheat leaf segments cv Kanzler, inoculated 1 day after application, assessed 7-9 days after application
Text: 3. Puccinia recondita f. sp. tritici/Wheat/Leaf Disc Preventative (Brown Rust): Wheat leaf segments cultivated variety (cv) Kanzler were placed on agar in 24-well plates and sprayed with formulated test compound diluted in water at an application rate of 200 ppm. The leaf disks were inoculated with a spore suspension of the fungus 1 day after application.

[11] = tested on: Phaeosphaeria nodorum (Septoria nodorum); assay: Phaeosphaeria nodorum (Septoria nodorum) / wheat / leaf disc preventative (glume blotch); type: in vivo; settings: 200 ppm; wheat leaf segments cv Kanzler, inoculated 2 days after application, assessed 5-7 days after application
Procedure: 5. Phaeosphaeria nodorum (Septoria nodorum)/Wheat/Leaf Disc Preventative (Glume Blotch): Wheat leaf segments (cv) Kanzler were placed on agar in a 24-well plate and sprayed with formulated test compound diluted in water at an application rate of 200 ppm. The leaf disks were inoculated with a spore suspension of the fungus 2 days after application. The inoculated test leaf disks were incubated at 20° C. and 75% relative humidity under a light regime of 12/12 h (light/dark) in a climate cabinet and the activity of a compound was assessed as percent disease control compared to untreated when an appropriate level of disease damage appears in untreated check leaf disks (5-7 days after application).

[12] = tested on: Alternaria solani; assay: Alternaria solani / tomato / leaf disc (early blight); type: in vivo; settings: 200 ppm; tomato leaf disks cv. Baby, inoculated 2 days after application, assessed 5-7 days after application
[13] = tested on: Mycosphaerella arachidis (Cercospora arachidicola); assay: Mycosphaerella arachidis (Cercospora arachidicola) / liquid culture (early leaf spot); type: cell-based; settings: 200 ppm; PDB potato dextrose broth, 24° C., 4-5 days after application
Procedure: as §1, with “12. Mycosphaerella arachidis (Cercospora arachidicola)/Liquid” for “14. Gaeumannomyces graminis/Liquid”, “(Early Leaf Spot): Conidia” for “(Take-all of Cereals): Mycelial fragments”, “broth” for “broth Cp.33,”, “was” for “is”

[14] = tested on: Pyrenophora teres; assay: Pyrenophora teres / barley / leaf disc preventative (net blotch); type: in vivo; settings: 200 ppm; barley leaf segments cv. Hasso, inoculated 2 days after application, assessed 5-7 days after application

COC(=O)c1cc2c(cc1Cl)COB2O [Compound 21]
at least 80%: disease control (inhibition of growth determined photometrically) [1] | disease control (inhibition of growth determined photometrically) [2] | disease control (inhibition of growth determined photometrically) [3] | disease control (inhibition of growth determined visually) [4] | disease control (inhibition of growth determined photometrically) [5] | disease control (inhibition of growth determined photometrically) [6] | disease control (inhibition of growth determined photometrically) [7] | disease control (inhibition of growth measured photometrically) [8] | disease control [9] | disease control [10] | disease control [11] | disease control [12] | disease control (inhibition of growth determined photometrically) [13]

COC(=O)c1cc2c(cc1F)COB2O [Compound 23]
at least 80%: disease control (inhibition of growth determined photometrically) [1] | disease control (inhibition of growth determined photometrically) [2] | disease control (inhibition of growth determined photometrically) [3] | disease control (inhibition of growth determined visually) [4] | disease control (inhibition of growth determined photometrically) [5] | disease control (inhibition of growth determined photometrically) [6] | disease control (inhibition of growth determined photometrically) [7] | disease control (inhibition of growth measured photometrically) [8] | disease control [14] | disease control [9] | disease control [10] | disease control [11] | disease control [12] | disease control (inhibition of growth determined photometrically) [13]

COC(=O)c1ccc2c(c1)B(O)OC2 [Compound 16]
at least 80%: disease control (inhibition of growth determined photometrically) [1] | disease control (inhibition of growth determined photometrically) [2] | disease control (inhibition of growth determined photometrically) [3] | disease control (inhibition of growth determined visually) [4] | disease control (inhibition of growth determined photometrically) [5] | disease control (inhibition of growth determined photometrically) [6] | disease control (inhibition of growth determined photometrically) [7] | disease control (inhibition of growth measured photometrically) [8] | disease control [14] | disease control [10] | disease control [11] | disease control (inhibition of growth determined photometrically) [13]

CCCOC(=O)c1cc2c(cc1Cl)COB2O [Compound 37]
at least 80%: disease control (inhibition of growth determined photometrically) [1] | disease control (inhibition of growth determined photometrically) [3] | disease control (inhibition of growth determined visually) [4] | disease control (inhibition of growth determined photometrically) [5] | disease control (inhibition of growth determined photometrically) [7] | disease control (inhibition of growth measured photometrically) [8] | disease control (inhibition of growth determined photometrically) [13]

O=C(Nc1ccc(F)cc1F)c1cc2c(cc1F)COB2O [Compound 27]
at least 80%: disease control (inhibition of growth determined photometrically) [1] | disease control (inhibition of growth determined photometrically) [3] | disease control (inhibition of growth determined visually) [4] | disease control (inhibition of growth determined photometrically) [5] | disease control (inhibition of growth determined photometrically) [6] | disease control (inhibition of growth determined photometrically) [7]
